Values quoted from earlier work in patent US12599590B2 (TriviumVet DAC, priority 2019, dated 2026).
At least one structure is not confirmed: it was looked up by name or label, or the drawing left a doubt.

Test system: healthy dogs
Details: 0.05 or 0.1 mg/kg orally three times per week, 10 weeks; cited from earlier work

Q: Which “changes in cardiac left ventricular function” value does the source give for `CO[C@H]1C[C@@H]2CC[C@@H](C)[C@@](O)(O2)C(=O)C(=O)N2CCCC[C@H]2C(=O)O[C@H]([C@H](C)C[C@@H]2CC[C@@H](O)[C@H](OC)C2)CC(=O)[C@H](C)/C=C(\C)[C@@H](O)[C@@H](OC)C(=O)[C@H](C)C[C@H](C)/C=C/C=C/C=C/1C` [rapamycin] here?
A: favorable changes in cardiac left ventricular function during both diastole and systole
